Measurements: PubChem BioAssay AID1259415 (National Center for Advancing Translational Sciences (NCATS), 2018)
Values joined by “and” are separate entries in the source; they are usually repeats but may differ in a detail not shown here. Equal entries are not always repeated. About 18,000 (4.4%) of roughly 410,000 compounds were called active. The inconclusive results got no clear call from the source; some entries with a clear call stand among them for comparison. Cut-off read from the data, not from the text of the source: active = activity change below about -60%; inconclusive = no clear call, values can overlap the other calls; inactive = above about -39%.
% is set by controls: 0 for no effect and ±100 for the full control effect.

Test: qHTS Assay for inhibitors of the human cytomegalovirus (HCMV)
Settings: HFF cells, HCMV-luciferase reporter, 72 h; at 57.5 µM; active compounds read low
Summary of the method: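 Two compound doses tested in HFFs infected with HCMV-luciferase, MOI 1 PFU/cell, 72 h at 37C. Lysate luminescence read with OneGlo; data normalized against buffer-only and 10uM Salinomycin inhibitor controls.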
In the case of `O=C(CCl)N=c1sccn1Cc1ccccc1Cl`, the activity change, negative = inhibition is reported as active: -91.1%. In the case of `C=CC[n+]1c(-c2ccc(OC)c(OC)c2)csc1NNC(=O)Nc1ccccc1`, the activity change, negative = inhibition is reported as inconclusive: -59.6%. For `Cc1cc(C)c2sc(N(CCN(C)C)C(=O)CCS(=O)(=O)c3ccccc3)nc2c1`, the activity change, negative = inhibition was inconclusive: -43%. In the case of `CC(NC(=O)c1ccc([N+](=O)[O-])o1)C12CC3CC(CC(C3)C1)C2` (stereo not given), the activity change, negative = inhibition is reported as inconclusive: -52%. For `COC(=O)c1scc(-c2ccc(C)cc2)c1S(=O)(=O)Nc1c(C)cc(C)cc1C`, the activity change, negative = inhibition was inactive: 18.5%. In the case of `Cc1nc2c(-c3ccccc3)c(C)[nH]n2c(=O)c1Cc1ccc(C(C)C)cc1`, the activity change, negative = inhibition is reported as inactive: -14.1%. In the case of `COc1ccc(C(=O)N2CCc3ccc(NC(=O)c4ccccn4)cc3C2)cc1F`, the activity change, negative = inhibition is reported as active: -89.5%. With `Cc1cc(O)ccc1Nc1cc(-c2cccc(N)c2)ncn1` the activity change, negative = inhibition was inactive: -31%. For `Cn1c(NCc2ccccc2)nc2cc(-c3cccc(C(F)(F)F)c3)sc2c1=O`, the activity change, negative = inhibition was inactive: 6.29%. For `CCOC(=O)CCc1c(C)nc2c(c(C)nn2-c2ccccc2)c1C`, the activity change, negative = inhibition was inconclusive: -50.2%. In the case of `CC(=O)N1c2ccccc2C(=O)C1N1CCN(c2cc(Cl)ccc2C)CC1` (stereo not given), the activity change, negative = inhibition is reported as inconclusive: 0%. For `CC1(C)CC2CC(C)(CN2C(=O)c2cc(-c3ccc(O)cc3)on2)C1` (stereo not given), the activity change, negative = inhibition was active: -60.7%. In the case of `Cc1ccc(CSCC(=O)N(C)CC(=O)Nc2ccccc2C(F)(F)F)cc1`, the activity change, negative = inhibition is reported as inconclusive: -45%. For `COc1ccc(Cl)cc1NC(=O)CN(C)C(=O)C12CC3CC(CC(Cl)(C3)C1)C2`, the activity change, negative = inhibition was inactive: -5.96%. For `COC(=O)c1ccc(-c2cc3onc(-c4ccccc4)c3c(=O)n2C)cc1`, the activity change, negative = inhibition was inactive: 3.46%. For `Nc1ccc(C(=O)OCc2csc(-c3ccccc3)n2)cc1[N+](=O)[O-]`, the activity change, negative = inhibition was inconclusive: -40.6%. In the case of `CCc1c(-c2cccc(OC)c2)ncn1Cc1cccc(-c2ccccc2)c1`, the activity change, negative = inhibition is reported as inconclusive: -55.3%. For `CCOC(=O)C1CCN(C(=O)c2cc3ccc4ccc(C)[nH]c4c3n2)CC1`, the activity change, negative = inhibition was inactive: 71.5%. For `CCOC(=O)c1nnc(-c2ccccc2)nc1N1CCSCC1`, the activity change, negative = inhibition was inconclusive: -50.6%. For `CC(NC1=CC(=O)c2cccnc2C1=O)C(O)c1ccccc1` (stereo not given), the activity change, negative = inhibition was active: -99.3%. With `O=C(Nc1cccc(C(F)(F)F)c1)N(Cc1ccc(Cl)cc1)CC(O)C(F)(F)F` (stereo not given) the activity change, negative = inhibition was inconclusive: -56.2%. With `COc1ccc(-n2c(C)cc(C(=O)Cn3nnc4ccccc4c3=O)c2C)cc1` the activity change, negative = inhibition was inconclusive: -58.8%. For `Cc1oc2cc3oc(=O)c(CCC(=O)NCCCC(=O)O)c(C)c3cc2c1C`, the activity change, negative = inhibition was inconclusive: -47.5%. With `COc1nnc(-c2ccc(N3CCCCC3)c(NC(=O)C3CCCCC3)c2)c2ccccc12` the activity change, negative = inhibition was active: -101%. In the case of `COc1ccc(N2CCN(c3nc4c(c(=O)[nH]c(=O)n4C)n3Cc3cccc(C)c3)CC2)cc1`, the activity change, negative = inhibition is reported as inconclusive: -47.9%. With `CN1C[C@]2(CCN3CCCC(C)(C)[C@@H]32)c2ccccc21` the activity change, negative = inhibition was inactive: 17.6%. With `Cc1onc(-c2ccccc2Cl)c1C(=O)N[C@@H]1C(=O)N2[C@@H]1SC(C)(C)[C@@H]2C(=O)O` the activity change, negative = inhibition was inconclusive: -43.3% and inconclusive: -45%. In the case of `CC(Sc1ccccn1)C(=O)Nc1ccc2c(c1)OCCO2` (stereo not given), the activity change, negative = inhibition is reported as inactive: -32.7%. With `Cc1ccc(-c2nnc(SCC(=O)N/N=C/c3c(C)nn(-c4ccccc4)c3C)n2-c2ccc(C)cc2)cc1` the activity change, negative = inhibition was inactive: -39.1%. With `Cc1ccccc1NC(=O)NCC1CCN(Cc2cccc(Cl)c2)CC1` the activity change, negative = inhibition was inconclusive: -45%. In the case of `COC(=O)Cc1nc(Nc2ccccc2)sc1C`, the activity change, negative = inhibition is reported as inconclusive: -47.8%. With `C=CCNC(=O)/C(C#N)=C/c1cn(-c2ccccc2)nc1-c1cccs1` the activity change, negative = inhibition was inconclusive: -52.1%. In the case of `O=C(Nc1cccc2[nH]ncc12)c1ccc(F)cc1`, the activity change, negative = inhibition is reported as active: -75.7%. For `COc1ccc(C(=O)N/C(=C\c2cn(S(=O)(=O)N(C)C)c3ccccc23)C(=O)NCCCn2ccnc2)cc1`, the activity change, negative = inhibition was inconclusive: -43.5%. In the case of `Cc1nn(C)c(C)c1C1Nc2ccccc2C(=O)N1O` (stereo not given), the activity change, negative = inhibition is reported as inactive: 72%. For `CCOC(=O)C(=O)NCC1CCCN1S(=O)(=O)c1cccs1` (stereo not given), the activity change, negative = inhibition was inactive: -3.21%. With `Cc1ccccc1NS(=O)(=O)c1ccc(C(=O)N2CCCC(C(F)(F)F)C2)cc1` (stereo not given) the activity change, negative = inhibition was inconclusive: -46.4%. For `CCCCNC(=O)C1C(c2ccc(C(F)(F)F)cc2)=Nc2ccccc2N1C(=O)c1ccc2nc(C)[nH]c2c1` (stereo not given), the activity change, negative = inhibition was active: -86.4%. With `CS(=O)(=O)c1ccc(-c2nnc(NC(=O)c3ccc(S(=O)(=O)N4CCCC4)cc3)o2)cc1` the activity change, negative = inhibition was inactive: -23.2%. For `COc1cc(/C=N/N2CCN(Cc3ccc(C)cc3)CC2)cc(OC)c1O`, the activity change, negative = inhibition was inconclusive: -52.7%. In the case of `Cn1ncc2c(N3CCN(c4ccccc4Cl)CC3)ncnc21`, the activity change, negative = inhibition is reported as inconclusive: -51.1%. With `Cc1cc(NC(=O)C2CCN(S(=O)(=O)c3cnc[nH]3)CC2)ccc1Br` the activity change, negative = inhibition was inactive: -17.8%. With `Cc1csc2c(N3CCN(C(=O)Nc4ccccc4)CC3)ncnc12` the activity change, negative = inhibition was inconclusive: -50.7%. For `CC(NC(=O)NC1CCCCC1)c1ccccc1` (stereo not given), the activity change, negative = inhibition was inconclusive: -47.8%. For `COc1ccc(N(CC(O)Cn2cnc3ccccc32)S(=O)(=O)c2ccc(C)cc2)cc1` (stereo not given), the activity change, negative = inhibition was inconclusive: -53.9%. For `CCN1CCN(C(=S)Nc2ccc(C(C)=O)cc2)CC1`, the activity change, negative = inhibition was inconclusive: -42.4%. With `O=C(CNC(=O)c1ccc(Br)o1)NCc1ccc(Cl)cc1Cl` the activity change, negative = inhibition was inconclusive: -53.7%. In the case of `Cc1nn(-c2ccccc2)c(N2CCCC2)c1/C=N/NC(=O)c1cc(-c2ccccn2)nc2ccccc12`, the activity change, negative = inhibition is reported as inactive: 79.1%. With `CCOc1cc(/C=C/c2nc3ccccc3s2)ccc1OCC(=O)N1CCOCC1` the activity change, negative = inhibition was inactive: -31.5%. For `CCOc1ccccc1NC(=O)Cn1nnc(C(=O)NCc2ccc3c(c2)OCO3)c1N`, the activity change, negative = inhibition was inactive: -11.3%. In the case of `O=C(N/N=C/c1ccc([N+](=O)[O-])o1)c1cc(-c2ccncc2)nc2ccccc12`, the activity change, negative = inhibition is reported as active: -66.7%. With `CNC(=S)N(Cc1ccc2c(c1)OCO2)C1CC(=O)N(c2ccc(F)cc2)C1=O` (stereo not given) the activity change, negative = inhibition was inconclusive: -49.3%. With `Cc1cccc(NC(=O)c2ccc([N+](=O)[O-])s2)n1` the activity change, negative = inhibition was active: -77.7%. For `O=C1N(C2CCCC2)C[C@@H]2C[C@@H](c3cccn3-c3nccs3)N3CCC[C@@]123`, the activity change, negative = inhibition was inconclusive: -49.8%. With `O=c1[nH]cnc2c1ccn2C1OC(CO)C(O)C1O` (stereo not given) the activity change, negative = inhibition was active: -69.3%. With `COc1cc(/C=N/NS(=O)(=O)c2ccc(C)c([N+](=O)[O-])c2)ccc1O` the activity change, negative = inhibition was inactive: 3.53%. With `CCN(CC(=O)Nc1ccc2c(c1)OCCO2)C(=O)CSCC(=O)Nc1ccc(C)cc1` the activity change, negative = inhibition was inactive: -24%. In the case of `COc1cc(/C=C(/C#N)c2nc3ccccc3[nH]2)ccc1Oc1ncccc1[N+](=O)[O-]`, the activity change, negative = inhibition is reported as inconclusive: -41.4%. For `Cc1ccc(N2C(=O)N(Cc3cccc(Cl)c3)c3ccccc3S2(=O)=O)cc1`, the activity change, negative = inhibition was inconclusive: 0%. In the case of `O=C(CSCC(=O)N1CCOCC1)Nc1nc(-c2ccccc2)cs1`, the activity change, negative = inhibition is reported as inactive: -4.15%. In the case of `CS(=O)(=O)c1ccc(C(=O)OC2CCOC2=O)cc1[N+](=O)[O-]` (stereo not given), the activity change, negative = inhibition is reported as inconclusive: -42.9%. For `COc1cc2c(cc1NC(=O)C(C)Oc1ccccc1)oc1ccccc12` (stereo not given), the activity change, negative = inhibition was inactive: 36.8%. For `Cc1cccc(-n2nc3c(c2NC(=O)c2cc4ccccc4o2)CS(=O)(=O)C3)c1`, the activity change, negative = inhibition was inconclusive: -50.2%. For `Fc1ccc(-c2nc3c4ccccc4ccn3c2Cc2ccsc2)cc1`, the activity change, negative = inhibition was inactive: 101%. In the case of `COc1cccc(NC(=O)CN(C)C(=O)c2ccc(OCC3CCCO3)cc2)c1` (stereo not given), the activity change, negative = inhibition is reported as inactive: 8.16%. In the case of `CC1(c2ccc(OC(F)F)cc2)NC(=O)N(CC(=O)NCCC2=CCCCC2)C1=O` (stereo not given), the activity change, negative = inhibition is reported as inactive: -24%. In the case of `CCn1c(CC(=O)Nc2ccccc2)nnc1SCC(=O)NC1CCCC1`, the activity change, negative = inhibition is reported as inactive: 11.9%. In the case of `CCOC(=O)N1CCC(NCCNC(=O)c2ccccc2Cl)CC1`, the activity change, negative = inhibition is reported as inactive: 10.7%. In the case of `CS(=O)(=O)N1CCc2cc(NC(=O)c3ccc(Cl)cc3Cl)ccc21`, the activity change, negative = inhibition is reported as inconclusive: -46.8%. With `CCCN(CCC)S(=O)(=O)c1cccc(C(=O)Nc2ccc3c(c2)OCO3)c1` the activity change, negative = inhibition was inconclusive: -42.9%. In the case of `Cc1ccccc1NC(=O)Cn1nnc(-c2ccc(CN3CCC(C)CC3)cc2)n1`, the activity change, negative = inhibition is reported as inconclusive: -41.1%. For `COc1ccc(-c2cc(C(=O)Nc3cnn(Cc4ccc(F)cc4)c3)no2)cc1OC`, the activity change, negative = inhibition was inactive: -7.42%. With `COc1cc(OC)cc(-c2c(-c3cccs3)c3cc(-c4cnc(OC)nc4)ccc3n2C)c1` the activity change, negative = inhibition was active: -78.5%. With `c1ccc(CNCCCn2cnc3c(OCc4ccccc4)ncnc32)cc1` the activity change, negative = inhibition was inconclusive: -52.9%. In the case of `Cc1nn(-c2ccc(C(=O)O)cc2)c(C)c1Cl`, the activity change, negative = inhibition is reported as inconclusive: -40.7%. With `CC1SC(=S)N(c2ccc(N(C)C)cc2)C1=O` (stereo not given) the activity change, negative = inhibition was active: -71.4%. In the case of `COc1cccc(/C=C2/SC(=O)N(C)C2=O)c1OCc1ccc(C(=O)O)cc1`, the activity change, negative = inhibition is reported as inconclusive: -40.5%. For `COc1ccc(N2CCN(C3CCCN(S(=O)(=O)c4ccc(C)cc4C)C3)CC2)cc1` (stereo not given), the activity change, negative = inhibition was active: -73.1%. With `CC(C)c1ccc(NC(=O)CSC2=Nc3ccccc3C3=NC(CC(=O)NC4CCCCC4)C(=O)N23)cc1` (stereo not given) the activity change, negative = inhibition was inactive: -26.3%. For `COc1cc(/C=C2/SC(=S)N(Cc3ccccc3)C2=O)cc(Cl)c1O`, the activity change, negative = inhibition was inconclusive: -59.7%. In the case of `COc1ccccc1CNc1nc(NCCOc2ccccc2Cl)c2sccc2n1`, the activity change, negative = inhibition is reported as active: -61.3%. For `Cc1cc(N2CCOCC2)n2ncc(-c3ccccc3)c2n1`, the activity change, negative = inhibition was inactive: -28.2%. With `CC(C)c1ccc(/C=N/NC(=O)CC(=O)NC2CCCCC2)cc1` the activity change, negative = inhibition was inconclusive: -54.3%. With `COc1ccc(C(=O)Nc2ccccc2C(=O)Nc2cccnc2)cc1` the activity change, negative = inhibition was inactive: 2.89%. For `CCOC(=O)c1c(NC(=O)C(C)Sc2cn(C)c3ccccc23)sc2c1CCC2` (stereo not given), the activity change, negative = inhibition was inconclusive: -47.9%.
